PMC7360780
No constants are given. Whether binding was seen depends on the method and setting. Binding seen in cells or lysates may run through a third protein. Some binding calls cover weakened binding; strength is not graded here.

Sequences of proteins named here, by UniProt entry; tags and fusion partners are left off. A change or cut given only in a name is not applied to a line headed by its entry.
UniProt Q13315: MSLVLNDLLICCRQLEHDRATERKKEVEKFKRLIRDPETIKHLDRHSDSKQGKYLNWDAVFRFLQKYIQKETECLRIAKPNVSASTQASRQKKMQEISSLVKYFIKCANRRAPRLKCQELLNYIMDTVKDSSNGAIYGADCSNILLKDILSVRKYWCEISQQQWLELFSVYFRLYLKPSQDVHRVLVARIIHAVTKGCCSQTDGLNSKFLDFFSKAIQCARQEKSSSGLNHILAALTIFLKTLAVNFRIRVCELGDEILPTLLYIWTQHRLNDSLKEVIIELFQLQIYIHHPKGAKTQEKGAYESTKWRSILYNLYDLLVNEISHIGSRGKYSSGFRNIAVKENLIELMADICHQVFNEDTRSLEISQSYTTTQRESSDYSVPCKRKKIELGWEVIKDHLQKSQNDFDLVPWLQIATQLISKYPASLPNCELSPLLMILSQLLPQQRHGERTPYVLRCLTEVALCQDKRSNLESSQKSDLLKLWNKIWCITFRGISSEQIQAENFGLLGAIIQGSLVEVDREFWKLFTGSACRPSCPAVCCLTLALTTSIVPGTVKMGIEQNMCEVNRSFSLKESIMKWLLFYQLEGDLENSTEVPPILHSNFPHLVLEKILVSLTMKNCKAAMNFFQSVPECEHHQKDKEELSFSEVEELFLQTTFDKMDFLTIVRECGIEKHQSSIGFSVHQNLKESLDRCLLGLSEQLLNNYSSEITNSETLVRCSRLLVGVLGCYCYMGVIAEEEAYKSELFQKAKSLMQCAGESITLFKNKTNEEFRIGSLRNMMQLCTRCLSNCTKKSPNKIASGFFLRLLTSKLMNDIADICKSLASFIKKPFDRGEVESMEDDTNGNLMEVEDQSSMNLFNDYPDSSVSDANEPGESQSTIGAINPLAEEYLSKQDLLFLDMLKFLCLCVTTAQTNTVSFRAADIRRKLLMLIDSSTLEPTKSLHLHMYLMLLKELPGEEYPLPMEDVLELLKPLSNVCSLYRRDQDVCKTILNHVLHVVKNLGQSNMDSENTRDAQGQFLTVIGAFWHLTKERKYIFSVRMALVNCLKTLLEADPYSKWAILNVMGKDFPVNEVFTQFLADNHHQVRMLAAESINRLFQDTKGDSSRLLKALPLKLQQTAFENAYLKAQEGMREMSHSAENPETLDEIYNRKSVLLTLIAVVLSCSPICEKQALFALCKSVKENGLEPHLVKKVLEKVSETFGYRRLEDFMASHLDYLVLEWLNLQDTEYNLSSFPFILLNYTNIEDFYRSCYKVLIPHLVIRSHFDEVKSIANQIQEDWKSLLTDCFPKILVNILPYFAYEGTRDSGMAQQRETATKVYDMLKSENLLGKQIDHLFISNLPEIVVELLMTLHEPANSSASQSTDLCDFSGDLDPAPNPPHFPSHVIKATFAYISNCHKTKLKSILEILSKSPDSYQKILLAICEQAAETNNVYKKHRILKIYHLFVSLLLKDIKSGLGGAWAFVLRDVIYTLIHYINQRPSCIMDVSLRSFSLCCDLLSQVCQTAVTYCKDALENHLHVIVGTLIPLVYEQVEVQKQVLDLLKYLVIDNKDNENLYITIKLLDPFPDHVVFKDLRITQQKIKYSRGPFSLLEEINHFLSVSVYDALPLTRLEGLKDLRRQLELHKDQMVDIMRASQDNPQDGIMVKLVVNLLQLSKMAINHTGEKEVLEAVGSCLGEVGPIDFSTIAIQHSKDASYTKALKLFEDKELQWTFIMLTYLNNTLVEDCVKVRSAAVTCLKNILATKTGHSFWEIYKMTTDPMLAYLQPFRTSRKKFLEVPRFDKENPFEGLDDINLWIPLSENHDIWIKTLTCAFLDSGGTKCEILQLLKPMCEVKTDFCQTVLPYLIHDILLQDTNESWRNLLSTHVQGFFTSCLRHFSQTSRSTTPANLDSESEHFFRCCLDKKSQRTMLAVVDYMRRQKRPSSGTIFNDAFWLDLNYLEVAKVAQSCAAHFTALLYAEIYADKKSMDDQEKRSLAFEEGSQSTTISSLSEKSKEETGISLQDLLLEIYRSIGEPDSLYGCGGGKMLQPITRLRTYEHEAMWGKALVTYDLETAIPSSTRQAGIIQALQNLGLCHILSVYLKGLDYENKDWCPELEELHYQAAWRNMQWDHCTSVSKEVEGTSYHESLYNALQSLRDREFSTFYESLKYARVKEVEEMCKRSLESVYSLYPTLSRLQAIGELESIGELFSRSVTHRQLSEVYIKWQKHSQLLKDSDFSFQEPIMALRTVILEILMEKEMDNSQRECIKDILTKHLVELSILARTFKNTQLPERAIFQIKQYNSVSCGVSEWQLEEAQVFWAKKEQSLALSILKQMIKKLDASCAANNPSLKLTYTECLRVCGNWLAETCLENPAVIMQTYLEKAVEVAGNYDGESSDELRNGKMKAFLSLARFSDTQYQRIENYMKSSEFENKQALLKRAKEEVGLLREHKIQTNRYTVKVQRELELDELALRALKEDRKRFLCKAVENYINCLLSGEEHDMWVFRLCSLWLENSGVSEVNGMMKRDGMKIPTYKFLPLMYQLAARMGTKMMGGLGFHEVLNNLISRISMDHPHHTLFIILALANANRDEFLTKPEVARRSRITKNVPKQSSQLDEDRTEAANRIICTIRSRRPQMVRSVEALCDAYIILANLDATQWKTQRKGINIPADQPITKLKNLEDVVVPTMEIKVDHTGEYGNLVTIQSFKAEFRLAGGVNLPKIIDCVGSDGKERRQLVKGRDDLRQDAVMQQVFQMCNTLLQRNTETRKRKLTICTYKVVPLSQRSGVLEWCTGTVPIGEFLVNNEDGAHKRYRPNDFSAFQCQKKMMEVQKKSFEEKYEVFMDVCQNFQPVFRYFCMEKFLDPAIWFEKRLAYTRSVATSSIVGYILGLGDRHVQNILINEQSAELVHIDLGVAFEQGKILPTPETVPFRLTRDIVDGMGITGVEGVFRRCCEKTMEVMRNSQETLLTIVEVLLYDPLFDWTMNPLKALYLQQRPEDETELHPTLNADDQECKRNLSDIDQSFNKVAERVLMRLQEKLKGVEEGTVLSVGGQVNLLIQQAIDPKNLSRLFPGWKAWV
UniProt P62136: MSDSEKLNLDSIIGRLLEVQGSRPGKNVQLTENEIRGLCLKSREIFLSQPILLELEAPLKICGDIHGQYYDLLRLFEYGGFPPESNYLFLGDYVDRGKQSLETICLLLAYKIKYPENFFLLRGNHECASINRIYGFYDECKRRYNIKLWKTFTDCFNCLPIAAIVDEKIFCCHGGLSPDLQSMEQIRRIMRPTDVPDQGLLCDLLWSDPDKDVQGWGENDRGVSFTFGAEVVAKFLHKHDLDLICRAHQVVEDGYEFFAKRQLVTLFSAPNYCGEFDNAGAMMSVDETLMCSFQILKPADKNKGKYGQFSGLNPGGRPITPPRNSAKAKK
UniProt P49841: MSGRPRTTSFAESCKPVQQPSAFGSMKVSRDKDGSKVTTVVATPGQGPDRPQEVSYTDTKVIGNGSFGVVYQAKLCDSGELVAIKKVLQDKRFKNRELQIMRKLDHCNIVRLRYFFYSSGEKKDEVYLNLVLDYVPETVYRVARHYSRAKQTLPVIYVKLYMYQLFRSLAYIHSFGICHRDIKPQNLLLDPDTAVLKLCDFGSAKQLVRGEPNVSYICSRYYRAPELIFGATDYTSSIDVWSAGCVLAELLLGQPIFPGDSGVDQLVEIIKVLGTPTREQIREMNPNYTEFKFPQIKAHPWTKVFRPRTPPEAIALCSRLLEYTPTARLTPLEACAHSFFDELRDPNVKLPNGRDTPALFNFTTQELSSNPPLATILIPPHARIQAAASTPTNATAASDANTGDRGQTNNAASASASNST

Legend:
[1] = target: FLAG-tagged ATM (ataxia telangiectasia mutated), wild type (human) (UniProt Q13315); assay: co-IP; FLAG immunoprecipitation kit from lysates of 293T cells transfected with FLAG-tagged ATM; cells under stress: CPT (1 μM, 24 h), IR (20 Gy, 24 h) or hypoxia (5 h); mutants: IR or hypoxia (KD, S1981A), hypoxia 5 h (R533A, K2117A, K2992A/S2996A)
[2] = target: FLAG-tagged ATM (ataxia telangiectasia mutated), wild type (human) (UniProt Q13315); assay: co-IP; FLAG immunoprecipitation kit (FLAGIPT1, Sigma) from lysates (Pierce IP Buffer) of 293T cells transfected with FLAG-tagged ATM 48 h before; untreated control cells; blots of the precipitates

Substance: PP1α (from UniProt P62136 1-330)
- binding [1]: no binding

Substance: Ser9-phosphorylated GSK3β (p-GSK3β) (from UniProt P49841 1-420)
- binding [1]: binds weakly
- binding [2]: binds

Substance: glycogen synthase kinase 3β (GSK3β), unphosphorylated (activated) (from UniProt P49841 1-420)
- binding [2]: binds
